Source: article PMC9512081
No constants are given. Whether binding was seen depends on the method and setting. Binding seen in cells or lysates may run through a third protein. Some results given as binding are weak or reduced against the parent protein; the word gives no strength.

Chains of the proteins cited; added tags and fusions are not shown.
UniProt P23198: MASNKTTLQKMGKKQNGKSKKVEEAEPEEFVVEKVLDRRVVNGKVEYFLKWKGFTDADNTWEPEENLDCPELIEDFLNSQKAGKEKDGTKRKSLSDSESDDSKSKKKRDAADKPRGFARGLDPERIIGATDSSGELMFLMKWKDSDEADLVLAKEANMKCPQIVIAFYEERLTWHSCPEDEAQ
UniProt Q61686: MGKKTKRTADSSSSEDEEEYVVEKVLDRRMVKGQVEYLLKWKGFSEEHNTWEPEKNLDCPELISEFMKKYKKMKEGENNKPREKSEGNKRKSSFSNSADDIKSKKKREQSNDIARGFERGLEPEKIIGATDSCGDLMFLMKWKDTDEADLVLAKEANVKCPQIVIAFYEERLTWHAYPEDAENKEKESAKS

What was measured:
[1] = molecular target: Heterochromatin Protein 1γ (HP1γ), mouse (mouse (endogenous in E13.5 cortex)) (UniProt P23198); experiment: co-IP; IP with anti-HP1γ or anti-HP1α antibody on Dynabeads Protein A from Benzonase-treated nuclear extracts of E13.5 wild-type mouse cortex, 150 mM NaCl final, overnight at 4°C; Western blots for POGZ and ADNP
[2] = molecular target: Heterochromatin protein 1α (HP1α), mouse (mouse (endogenous in E13.5 cortex)) (UniProt Q61686); experiment: as above

| Binder | binding [1] | binding [2] |
| --- | --- | --- |
| Pogo Transposable Element with ZNF Domain protein (POGZ), mouse (protein, UniProt Q8BZH4 1-1409) MADTDLFMECEEEELEPWQKISDVIEDSVVEDYNSVDKTTSVSVSQQPVSAPVPIAAHASVAGHLSTSTTVSNSGAQNSDSTKKTLVTLIANNNAGNTLVQQGGQPLILTQNPAPGLGTMVTQPVLRPVQVMQNANHVTSSPVASQPIFITTQGFPVRNVRPVQNAMNQVGIVLNVQQGQTVRPITLVPAPGTQFVKPTVGVPQVFSQMTPVRPGSTMPVRPTTNTFTTVIPATLTIRSTVPQSQSQQTKSTPSTSTTPTATQPTSLGQLAGQPPGQSNQTSNPKLAPSFPSPPAVSIASFVTVKRPGVTGENSNEVAKLVNTLNTVPSLGQSPGPVVVSNNSSAQRTSGPESSVKVTSSIPVFDLQDGGRKICPRCNAQFRVTEALRGHMCYCCPEMVEYQKKGKSLDAEPSVPSAAKPSSPEKTAPVTSTPSSTPIPALSPPTKVPEPNENAGDAVQTKLIMLVDDFYYGRDGGKAAQLTSFPKVATSFRCPHCTKRLKNNIRFMNHMKHHVELDQQNGEVDGHTICQHCYRQFSTPFQLQCHLENVHSPYESTTKCKICEWAFESEPLFLQHMKDTHKPGEMPYVCQVCQYRSSLYSEVDVHFRMIHEDTRHLLCPYCLKVFKNGNAFQQHYMRHQKRNVYHCNKCRLQFLFAKDKIEHKLQHHKTFRKPKQLEGLKPGTKVTIRASRGQPRTVPVSSNDAPSGTLQEAAALTSTDPLPVFLYPPVQRNIQKRAVRKMSVMGRQTCLECSFEIPDFPNHFPTYVHCSLCRYSTCCSRAYANHMINNHVPRKSPKYLALFKNSVSGIKLACTSCTFATSVGDAMAKHLVFNPSHRSSNILPRGLSWMSHLRPGQASERVFDWSMKNTYLPPPLVPNKAATVKPVGVTPAEPQELAGPVLQALPSPASTATPPATPTHPQPSALPPSATEGTECLNVSEQEEGSPVTQDPEPASGGGGGSGVGKKEQLSVKKLRVVLFALCCNTEQAAEHFRNPQRRIRRWLRRFQASQGENLEGKYLSFEAEEKLAEWVLIQREQQLPVNEETLFQKATKIGRSLEGGFKISYEWAVRFMLRHHLTPHARRAVAHTLPKHVAENAGLFIEFVQRQIHNQDLPLSMIVAIDEISLFLDTEVLSSDDRKENALQTVGTGEPWCDVVLAILADGTVLPTLVFFRGQANRFANVPDSILLEAKDSGYSDDEIMELWSTRVWKKHTACQHSKSMLVMDCHRTHLSEEVLALLSASSTLPAVVPAGCSSKIQPLDVCIKRTVKNFLHKKWKEQAREMADAACDSDVLLQLVLVWLGEVLGVIGDSPELVQRSFLVASVLPGPDGNVNSPTRNADMQEELIASLEEQLKLNGEQSEEHSASAPRPRSSPEETVEPESLHQLFEGESETESFYGFEEADLDLMEI | binds | no binding |
| ADNP, mouse (protein, UniProt Q9Z103 1-1108) MFQLPVNNLGSLRKARKTVKKILSDIGLEYCKEHIEDFKQFEPNDFYLKNTTWEDVGLWDPSLTKNQDYRTKPFCCSACPFSSKFFSAYKSHFRNVHSEDFENRILLNCPYCTFNADKKTLETHIKIFHAPNSSAPSSSLSTFKDKNKNDGLKPKQADNVEQAVYYCKKCTYRDPLYEIVRKHIYREHFQHVAAPYIAKAGEKSLNGAVSLGTNAREECNIHCKRCLFMPKSYEALVQHVIEDHERIGYQVTAMIGHTNVVVPRAKPLMLIAPKPQDKKGMGLPPRISSLASGNVRSLPSQQMVNRLSIPKPNLNSTGVNMMSNVHLQQNNYGVKSVGQSYGVGQSVRLGLGGNAPVSIPQQSQSVKQLLPSGNGRSFGLGAEQRPPAAARYSLQTANTSLPPGQVKSPSVSQSQASRVLGQSSSKPPPAATGPPPSNHCATQKWKICTICNELFPENVYSVHFEKEHKAEKVPAVANYIMKIHNFTSKCLYCNRYLPTDTLLNHMLIHGLSCPYCRSTFNDVEKMAAHMRMVHIDEEMGPKTDSTLSFDLTLQQGSHTNIHLLVTTYNLRDAPAESVAYHAQNNAPVPPKPQPKVQEKADVPVKSSPQAAVPYKKDVGKTLCPLCFSILKGPISDALAHHLRERHQVIQTVHPVEKKLTYKCIHCLGVYTSNMTASTITLHLVHCRGVGKTQNGQDKTNAPSRLNQSPGLAPVKRTYEQMEFPLLKKRKLEEDADSPSCFEEKPEEPVVLALDPKGHEDDSYEARKSFLTKYFNKQPYPTRREIEKLAASLWLWKSDIASHFSNKRKKCVRDCEKYKPGVLLGFNMKELNKVKHEMDFDAEWLFENHDEKDSRVNASKTVDKKHNLGKEDDSFSDSFEHLEEESNGSGSPFDPVFEVEPKIPSDNLEEPVPKVIPEGALESEKLDQKEEEEEEEEEDGSKYETIHLTEEPAKLMHDASDSEVDQDDVVEWKDGASPSESGPGSQQISDFEDNTCEMKPGTWSDESSQSEDARSSKPAAKKKATVQDDTEQLKWKNSSYGKVEGFWSKDQSQWENASENAERLPNPQIEWQNSTIDSEDGEQFDSMTDGVADPMHGSLTGVKLSSQQA | binds | no binding |
